These are yes or no findings as the source states them, for the method shown. Binding seen in cells or lysates may run through a third protein. Here binding means that the protein was enriched with, or labelled near, the bait; the list need not be complete. Sequences can lack the tags named with a protein.
Target: T1, SPANX-C-V5 fusion protein (UniProt Q9NY87)
T1 sequence: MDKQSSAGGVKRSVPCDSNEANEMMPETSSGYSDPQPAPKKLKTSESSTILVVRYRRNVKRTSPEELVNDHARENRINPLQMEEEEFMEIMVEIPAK
Assay: affinity purification with mass spectrometry; SPANX-C-V5 immunoprecipitates, with proteins bound to protein-A sepharose beads as control; run into an SDS/PAGE gel, digested with trypsin, reverse phase LC-MS/MS

The chains behind the UniProt entries cited, without tags or fusion partners. Residues count along the entry.
UniProt P02545, residues 1-646: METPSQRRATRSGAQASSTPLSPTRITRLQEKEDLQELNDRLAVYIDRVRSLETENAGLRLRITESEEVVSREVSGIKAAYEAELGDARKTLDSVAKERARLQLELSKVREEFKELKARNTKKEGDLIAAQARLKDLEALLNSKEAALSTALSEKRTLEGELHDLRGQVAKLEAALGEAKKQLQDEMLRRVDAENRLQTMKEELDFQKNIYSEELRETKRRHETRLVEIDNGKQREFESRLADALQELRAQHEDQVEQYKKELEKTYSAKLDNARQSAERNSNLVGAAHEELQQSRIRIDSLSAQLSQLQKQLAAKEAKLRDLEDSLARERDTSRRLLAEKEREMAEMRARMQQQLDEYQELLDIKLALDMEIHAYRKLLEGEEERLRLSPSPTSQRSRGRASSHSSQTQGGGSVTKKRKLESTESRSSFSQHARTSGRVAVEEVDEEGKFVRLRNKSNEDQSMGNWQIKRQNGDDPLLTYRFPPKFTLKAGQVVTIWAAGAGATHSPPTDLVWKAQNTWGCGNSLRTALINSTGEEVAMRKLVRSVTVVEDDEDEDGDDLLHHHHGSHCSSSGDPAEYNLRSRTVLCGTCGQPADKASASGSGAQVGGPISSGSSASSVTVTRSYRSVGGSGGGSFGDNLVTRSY

Substance: Lamin A/C (Lamin A and Lamin C, products of the LMNA gene) (from UniProt P02545 1-646)
- binding: binds

— PMC4924746
